# Library screening results

From ChEMBL document CHEMBL3988442, “University of Dundee, Small-Polar-MMV Screening Library” (2021).

The filed quantity is “Percent Effect” (%).
The record does not define 0% and 100%; most values in the screen are far below 50% and negative numbers occur (in some assays of this library far below -100).
The compounds are a random part of those screened.
A dash means the value is not listed here; it may have been measured.

Mtb growth Cornell: 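Whole-cell assay for inhibitors of Mycobacterium tuberculosis growth, labelled Cornell in the record; the read-out is not stated. The concentration is filed as 10 mM, unlikely as a test dose, so the dose is not known. The record gives no direction; compounds strong in two other growth screens of this library score well above the rest, so higher reads as stronger inhibition. Of about 53,000 compounds tested this way, about 900 (1.7%) reached 50% or more in at least one test.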
Mtb heat-shock: 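Assay on Mycobacterium tuberculosis, filed only as a heat shock assay from Cornell; the read-out is not stated. The concentration is filed as 10 mM, unlikely as a test dose, so the dose is not known. The record gives no direction; compounds that gave an IC50 in retests scored well above the rest, so higher reads as stronger inhibition. Of about 69,000 compounds tested this way, about 930 (1.4%) reached 50% or more in at least one test.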

| structure | Mtb growth Cornell | Mtb heat-shock |
|---|---|---|
| `CC(C)CC(=O)N1CCN(C(=O)NC(C)C)CC2(CC(=O)N(C)C2)C1` (stereo not given) | 19.45% | -18.21% |
| `CNS(=O)(=O)Cc1ccc(CNC(=O)Nc2cccnc2)cc1` | -15.69% | 10.08% |
| `O=C1CCCc2cc(-c3csc(CCN4CCOC4=O)n3)ccc2N1` | -37.01% | 0.283% |
| `O=C(O)C(F)(F)F.O=C(O)C(F)(F)F.[H][C@]12CCCN(c3ncc(C)cn3)[C@@]1([H])CN(CC(=O)N(C)C)C2` | -8.14% | -1.572% |
| `NC(=O)C(NC(=O)c1ccc(NC2CC2)nc1)c1ccccc1` (stereo not given) | -20.48% | -7.076% |
| `COc1ccc(C2=CCN(C(=O)C3CCN(C)C(=O)C3)CC2)cc1` (stereo not given) | 6.614% | 8.059% |
| `Cc1cc(C)n(CC2CCCCN2CC(=O)NC2CCOCC2)n1` (stereo not given) | - | -29.65% |
| `CC(C)(O)CN1CCN(C(=O)c2cccn2Cc2ccncc2)CC1` | - | -7.135% |
| `COC(=O)CCNC(=O)c1cnc(Cc2ccc(F)cc2)s1` | 3.105% | 19.38% |
| `CCN(CC1COc2ccccc2O1)C(=O)CCn1cncn1` (stereo not given) | - | -18.98% |
| `CC(C)(C)CN(CCC#N)C(=O)c1cccc(CN2CCCC2)c1` | - | -10.21% |
| `[H][C@@]12CCN(C(C)=O)C[C@]1(C(=O)NCc1cnc(C)cn1)CCO2` | -5.933% | 51.19% |
| `c1coc(-c2noc(CN3CCC(c4ccn[nH]4)CC3)n2)c1` | - | 12.08% |
| `Cc1c(C)n2c(SCC(=O)N3CCCCCC3)nnc2[nH]c1=O` | -2.883% | -5.156% |
| `CCN(CC)C(=O)NC(C)c1ccc(Oc2cccnc2)c(F)c1` (stereo not given) | -8.405% | -27.92% |
| `COc1ccnc(N2CCN(C(=O)NCc3ccc(C)s3)CC2)n1` | - | -21.35% |
| `Cc1ccc(Br)cc1NC(=O)NC1CCC2(C1)OCCO2` (stereo not given) | -15.29% | 4.11% |
| `N#Cc1cccc(N2CC3(CCN(C(=O)c4ccncc4)C3)CC2=O)c1.O=C(O)C(F)(F)F` (stereo not given) | -8.884% | -11.27% |
| `Cc1csc(CN(C)CCCOc2cccc(C#N)c2)n1` | 16.42% | -11.89% |
| `CC(C)Oc1ncccc1CNC(=O)c1ccccn1` | - | 0.4838% |
| `Cc1n[nH]c(C2CN(C(=O)c3cc(C)sc3C)CCO2)n1` (stereo not given) | 30.31% | 16.55% |
| `Cc1ncsc1CNC(=O)N1CCN(Cc2ccccc2)C[C@H]1C` | 5.03% | -20.89% |
| `CS(=O)(=O)NCc1nnc2n1CCN(Cc1cccs1)C2` | 19.74% | 7.203% |
| `Cl.Cl.Cn1cc(C(=O)NCc2cncc3c2CCNC3)cn1` | -28.06% | -18.1% |
| `CN(C(=O)Nc1ccccn1)C1CCCN(c2ccccc2)C1=O` (stereo not given) | -7.354% | -1.455% |
| `O=C(Nc1cccnc1-n1cncn1)N(C1CCCC1)C1CC1` | 33.28% | 15.24% |
| `O=C(Nc1nc2c(s1)CN(S(=O)(=O)C1CC1)CC2)c1ccc(Cl)s1` | 7.24% | -0.4432% |
| `CN(C)c1nccc(CNS(=O)(=O)c2cc(Cl)cc(Cl)c2)n1` | 17.85% | 4.856% |
| `O=C(c1cccc2c1OCCO2)N1CCCC(n2cccn2)C1` (stereo not given) | -21.85% | 0.8418% |
| `CNc1cncc(C2CCCN2Cc2ccn(C)n2)n1` (stereo not given) | - | -19.6% |
| `Cc1csc(N2CCCN(C(=O)c3cccs3)CC2)n1` | 23.09% | -4.421% |
| `CN(Cc1ccccc1)CC1CC2(CO1)CN(Cc1nccs1)C2` (stereo not given) | -25.14% | -7.524% |
| `CC1CCCN1C1CCN(C(=O)c2cccc(-c3ccoc3)c2)CC1` (stereo not given) | - | -16.37% |
| `CCC(O)c1nc2c([nH]1)CC(C)(C)CNC2=O` (stereo not given) | -22.87% | -11.95% |
| `c1cc(CN2CCCC3(CCN(CC4CCCO4)CC3)C2)n[nH]1` (stereo not given) | -2.281% | 47.94% |
| `CC(C)c1n[nH]c(C2CN(C(=O)c3csnn3)CCO2)n1` (stereo not given) | -29.36% | 4.85% |
| `Cn1ccc2c(-c3cc(N)nc(N4CCOCC4)n3)ccnc21` | 15.42% | 11.63% |
| `[H][C@]12CCN(C(=O)Nc3cccc(OC)c3)CC[C@@]1([H])S(=O)(=O)N(C)C2` | -43.46% | 43.36% |
| `CC(=O)c1sc(C(NC(=O)c2ccccc2)C2CC2)nc1C` (stereo not given) | - | -1.83% |
| `CCc1c(C)nc(C)nc1N1CCC(NCCSc2nnnn2C)CC1` | 23.65% | 4.314% |
| `CCN(CC)c1nc(C)cc(C(=O)Nc2cccc(C(N)=O)c2)n1` | 20.79% | -7.281% |
| `Cc1cc(C(=O)N2C[C@@H](C(=O)O)[C@H](C(C)C)C2)cs1` | -0.8529% | 5.792% |
| `Cc1cc(C)n(CC2CN(CC(=O)N3CCC3)CCO2)n1` (stereo not given) | -25.47% | -22.38% |

For reference, 5 entries once more:

structure	Mtb growth Cornell	Mtb heat-shock
O=C(Nc1nc2c(s1)CN(S(=O)(=O)C1CC1)CC2)c1ccc(Cl)s1	7.24%	-0.4432%
CC(=O)c1sc(C(NC(=O)c2ccccc2)C2CC2)nc1C (stereo not given)	-	-1.83%
CC(C)Oc1ncccc1CNC(=O)c1ccccn1	-	0.4838%
COc1ccc(C2=CCN(C(=O)C3CCN(C)C(=O)C3)CC2)cc1 (stereo not given)	6.614%	8.059%
CCc1c(C)nc(C)nc1N1CCC(NCCSc2nnnn2C)CC1	23.65%	4.314%